1 molecule from patent US20260116925A1 can be followed below.

Results are given in words; binding and its absence hold for the method and conditions named. Some entries that bind do so weakly or less than the wild type. Sequences can lack the tags named with a protein.

The target in assay [1] is recombinant Serpinb3a (mouse-derived), 6×His-tagged, produced in E. coli (mouse). The assay is described as follows: anti-6×His western blot of recombinant protein (self-association, dimer). (In general: Immunoblotting shows a protein as a band on a membrane.)
For assay [2] the target is unchanged. The assay is described as follows: Western blot (self-association, dimer).

B1: recombinant Serpinb3a (mouse-derived), 6×His-tagged, produced in E. coli (protein)
chain: HHHHHHMHLFAEATTKFTLELYRQLRESDNNIFYSPISMMTALAMLQLGAKGNTEKQIEKVLQFNETTKKTTEKSAHCHDEENVHEQFQKLMTQLNKSNDAYDLKAANSIYGAKGFPFVQTFLEDIKEYYQANVESLDFEHAAEESEKKINSWVESQTNGKIKDLFPNGSLNRSTIMVLVNAVYFKGQWNHKFDEKHTTEEKFWLNKNTSKPVQMMKQNIEFNFMFLEDVQAKIVEIPYKGKELSMIVLLPVEINGLKQLEEQLTADKLLEWTRAENMHMTELYLSLPRFKVDEKYDLPIPLEHMGMVDAFDPQKADFSGMSSTQGLVVSKVLHKSFVEVNEEGTEAAAATGVEVSLTSAQIAEDFCCDHPFLFFIIHRKTNSILFFGRISSP
As for B1, the binding result in assay [1] and in assay [2] was “binds” in each case.
